Test results from article PMC6382798.
No constants are given. Whether binding was seen depends on the method and setting. Binding seen in cells or lysates may run through a third protein. Some results given as binding are weak or reduced against the parent protein; the word gives no strength. Where a sequence is shown, tags or fusion partners need not be part of it.

By UniProt entry, the sequences of proteins in these tests, tags left out. Where a name states a change or a piece, a line headed by the entry shows the natural chain unless it says otherwise.
UniProt O75475: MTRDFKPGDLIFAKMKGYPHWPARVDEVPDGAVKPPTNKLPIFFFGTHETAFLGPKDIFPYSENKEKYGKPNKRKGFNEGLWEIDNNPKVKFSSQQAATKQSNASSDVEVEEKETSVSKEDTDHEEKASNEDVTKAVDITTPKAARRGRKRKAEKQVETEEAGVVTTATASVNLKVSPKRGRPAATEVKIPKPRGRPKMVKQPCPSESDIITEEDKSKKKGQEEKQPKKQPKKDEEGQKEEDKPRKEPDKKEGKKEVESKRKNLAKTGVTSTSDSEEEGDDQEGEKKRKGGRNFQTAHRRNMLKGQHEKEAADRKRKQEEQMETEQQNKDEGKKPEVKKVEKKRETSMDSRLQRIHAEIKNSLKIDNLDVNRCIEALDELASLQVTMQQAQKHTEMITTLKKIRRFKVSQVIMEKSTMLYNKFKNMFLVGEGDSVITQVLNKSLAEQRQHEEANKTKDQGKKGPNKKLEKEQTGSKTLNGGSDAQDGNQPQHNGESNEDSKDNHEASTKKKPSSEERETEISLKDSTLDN

Biological target: T1, 3xFlag-JPO2 (UniProt Q96GN5)
T1 sequence: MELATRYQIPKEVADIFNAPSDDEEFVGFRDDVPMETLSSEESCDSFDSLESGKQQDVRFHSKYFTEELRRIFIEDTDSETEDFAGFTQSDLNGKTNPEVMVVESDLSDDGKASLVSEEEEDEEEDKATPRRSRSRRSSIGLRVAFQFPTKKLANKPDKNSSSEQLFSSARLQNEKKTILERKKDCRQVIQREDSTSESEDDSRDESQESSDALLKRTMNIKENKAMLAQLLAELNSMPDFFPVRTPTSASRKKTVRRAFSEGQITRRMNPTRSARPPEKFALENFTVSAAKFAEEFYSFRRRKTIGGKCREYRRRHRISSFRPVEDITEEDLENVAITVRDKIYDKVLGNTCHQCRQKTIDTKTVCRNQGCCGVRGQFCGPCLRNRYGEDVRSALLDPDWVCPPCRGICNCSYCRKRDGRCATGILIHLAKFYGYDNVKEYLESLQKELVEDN
Test: co-IP; HEK293T_LEDGF KO clone 1 cells co-transfected with LEDGF or LEDGF D366N and a 3xFlag-tagged partner; nuclear lysate (20 mM Tris-HCl pH 7.4, 400 mM NaCl, 0.1% IGEPAL, 1 mM DTT) incubated with anti-FLAG M2-agarose resin; washed 3 times in 400 mM NaCl buffer; Western blot with anti-Flag and anti-LEDGF(480-530)

| binding | Substance |
| --- | --- |
| binds | LEDGF/p75 D366N mutant (from UniProt O75475 1-530) |
| binds | Lens Epithelial Derived Growth Factor p75 (LEDGF/p75), wild type (from UniProt O75475 1-530) |
